One sequence from patent USRE39350 can be followed below.

This series concerns His-tagged RB47 (Chlamydomonas reinhardtii). Put plainly: binding assay. The note with it: similar binding characteristics to recombinant precursor; method not stated; purified recombinant protein; protein details: N-terminal His tag (pET19-D), mature form; label: radiolabeled.

For at least one entry, the source does not settle the construct or the ends of the probe.

With “CGUCCUAUUUUAAUACUCCGAAGGAGGCAGUUGGCAGGCAACUGCCACUGACGUCCCGUAAGGGUAAGGGGACGUCCACUGGCGUCCCGUAAGGGGAAGGGGACGUAGGUACAUAAAUGUGCUAGGUAACUAACGUUUGAUUUUUUGUGGUAUAAUAUAUGUACCAUGCUUUUAAUAGAAGCUUGAAUUUAUAAAUUAAAAUAUUUUUACAAUAUUUUACGGAGAAAUUAAAACUUUAAAAAAAUUAACAU [psbA 5' UTR RNA]”, the binding result is listed as “binds”.
